According to PubChem BioAssay AID1487 (National Center for Advancing Translational Sciences (NCATS), 2009):
Several values for one entry are separate records, joined by “and”; a condition that tells them apart may be missing. Equal entries are not always repeated. The list shows a part of the results. Shown are side measurements of this screen, not its main read-out; they come without a call. The list favours compounds with an active or inconclusive main result. The note in brackets gives the kind of curve behind each potency; many fits are weak.

Assay: qHTS Assay for Modulators of Lamin A Splicing
Settings: HeLa LMNA splicing GFP/RFP minigene ratio, 48 h
Outline: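 S3 HeLa cells stably expressing lamin A-EGFP splicing minigene plus DsRed2, 600 cells/well, 48 h compound exposure at 37C. Laser-scanning cytometry; analysed as GFP (500-530 nm)/RFP (575-640 nm) total intensity ratio; 0.5% DMSO vehicle.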

[1] = measured here: GFP splicing reporter channel
[2] = measured here: RFP viability control channel

SMILES | AC50 [1] | AC50 [2]
CCOc1ccc(NC(=O)C2CCN(c3nc4ccccc4[nH]3)CC2)cc1 | 0.631 µM [rising, full curve] | 
CC(C)Cc1nc2oc3c(NCC4CCCO4)ncnc3c2c2c1CCC2 (centres undefined) | 2.82 µM [falling, full curve, poor fit] | 
O=c1[nH]c(NCc2ccco2)nnc1Cc1ccccc1Cl |  | 35.5 µM [rising, single point]
O=[N+]([O-])c1ccc(Oc2ccc(S(=O)(=O)N3CCCCC3)cc2)cc1 |  | 10 µM [rising, partial curve]
NS(=O)(=O)c1ccc(NCc2cc(Cl)ccc2OCc2ccccc2F)cc1 | 35.5 µM [falling, single point] | 35.5 µM [falling, single point]
CCN1CCc2nc3ccccc3c(C(=O)Nc3ccc(C#N)cc3)c2C1 | 5.01 µM [falling, full curve, poor fit] | 
O=C(NCCC1=CCCCC1)c1ccc(CN2CCOCC2)cc1 |  | 25.1 µM [rising, single point]
N/C(=N\OC(=O)c1ccc(Cl)c(Cl)c1)c1ccccn1 | 22.4 µM [falling, partial curve] | 22.4 µM [falling, partial curve]
Cc1ccc(/C=C(\NC(=O)c2ccc(C)cc2)c2nc(=S)[nH][nH]2)cc1 | 22.4 µM [falling, single point] | 20 µM [falling, partial curve]
CC(C)c1cc(C(F)(F)F)n2nc(C(=O)Nc3ccc4c(c3)OCO4)cc2n1 | 8.91 µM [rising, partial curve] | 2.24 µM [rising, full curve]
CCOC(=O)c1csc(NC(=O)CSc2nnnn2-c2ccc3c(c2)OCCO3)n1 |  | 25.1 µM [rising, single point]
Cc1ccc(S(=O)(=O)Nc2ccc(NC(=O)Nc3cccc(C(F)(F)F)c3)cc2)cc1 | 35.5 µM [falling, single point] | 
Cc1nc(-c2ccccc2)sc1-c1ccn[nH]1 |  | 0.0708 µM [falling, full curve, poor fit]
Cc1cccc(C(=O)N/N=C/c2ccccn2)c1 | 35.5 µM [rising, single point] | 25.1 µM [rising, single point]
Cc1sc2nc(CSc3ccc([N+](=O)[O-])c(C(F)(F)F)c3)[nH]c(=O)c2c1C |  | 3.55 µM [rising, partial curve]
CCOC(=O)C1(C)NC(c2ccc(OC)cc2OC)C2C(=O)N(CC)C(=O)C21 (centres undefined) | 35.5 µM [falling, partial curve, poor fit] | 28.2 µM [falling, partial curve]
CC(=O)OC[C@H]1O[C@@H](O/N=C(\C)CCN2CCCCc3nc(C)c(C)cc32)[C@H](OC(C)=O)[C@@H](OC(C)=O)[C@@H]1OC(C)=O |  | 17.8 µM [rising, partial curve, poor fit]
Cc1ccc(NC(=S)c2nc3ccccc3[nH]2)cc1 | 0.0282 µM [falling, single point] | 0.0355 µM [falling, single point]
CN1CCN(c2ccc([N+](=O)[O-])c(Sc3nc4ccccc4[nH]3)c2)CC1 |  | 12.6 µM [rising, single point]
Cc1cc(C)c(NC(=O)CSc2nc3ccccc3c3nc(CCn4cncc4C)nn23)c(C)c1 | 12.6 µM [falling, single point] | 10 µM [falling, partial curve]
CCN1CCN(C(=O)c2ccc3c(c2)N(Cc2cccc(Cl)c2)C(=O)c2ccccc2S3=O)CC1 (centres undefined) | 3.16 µM [rising, single point] | 
Cc1cccc(C(C)C)c1NC(=O)CN(C)Cc1cccc(F)c1 | 10 µM [rising, partial curve, poor fit] | 11.2 µM [rising, single point]
Cc1ccc(/C=C/C(=O)Nc2nc(-c3cccs3)ns2)cc1 | 17.8 µM [falling, single point] | 35.5 µM [falling, single point]
CC(C)(C)c1nnc2sc(SCC(=O)c3ccccc3)nn2c1=O |  | 20 µM [rising, single point]
C=C(CC)C(=O)c1ccc(OCC(=O)O)c(Cl)c1Cl | 1.58 µM [falling, partial curve] | 3.16 µM [falling, partial curve] and 3.98 µM [falling, single point] and 4.47 µM [rising, full curve, poor fit]
CCCCNS(=O)(=O)c1ccc2nc(SCC(=O)c3ccccc3OC)[nH]c2c1 |  | 11.2 µM [rising, partial curve]
O=c1[nH][nH]cc1C=NCc1cccc(C(F)(F)F)c1 | 2.51 µM [rising, single point] | 0.316 µM [rising, partial curve, poor fit]

Compounds above that contain an aryl methoxy group (two):
SMILES | AC50 [1] | AC50 [2]
CCOC(=O)C1(C)NC(c2ccc(OC)cc2OC)C2C(=O)N(CC)C(=O)C21 (centres undefined) | 35.5 µM [falling, partial curve, poor fit] | 28.2 µM [falling, partial curve]
CCCCNS(=O)(=O)c1ccc2nc(SCC(=O)c3ccccc3OC)[nH]c2c1 |  | 11.2 µM [rising, partial curve]

Remaining list, next part:

SMILES | AC50 [1] | AC50 [2]
CCCOc1ccccc1NC(=O)c1c(-c2ccccc2)noc1C |  | 35.5 µM [rising, partial curve, poor fit]
O=P(COCCOCCOCP(=O)(c1ccccc1)c1ccccc1)(c1ccccc1)c1ccccc1 | 25.1 µM [falling, partial curve] | 20 µM [falling, partial curve, poor fit]
O=C(CSCC(=O)NC1CCCC1)Nc1ccccc1 | 6.31 µM [falling, partial curve, poor fit] | 0.00501 µM [falling, full curve, poor fit]
Cc1nonc1C(=O)N/N=C/c1ccc([N+](=O)[O-])o1 |  | 0.891 µM [falling, full curve, poor fit]
Cc1cc(C)c(C)c(OCCCCn2cnc3ccccc3c2=O)c1 |  | 22.4 µM [rising, single point]
O=C(NCCCN1CCc2ccccc2C1)C1CCN(c2nnc(-n3cccc3)s2)CC1 |  | 14.1 µM [rising, single point]
Cc1ccc(S(=O)(=O)Cn2nnnc2C(CC(C)C)N2CCN(C)CC2)cc1 (centres undefined) | 0.158 µM [rising, full curve, poor fit] | 
Cc1cccc(CCNC(=O)c2ccc3c(c2)nc2n3CCC(C)C2)c1 (centres undefined) | 2.82 µM [rising, single point] | 
COc1ccc(-n2c(=O)c3c4c(sc3n(Cc3cccc(F)c3)c2=O)CN(C(C)=O)CC4)c(OC)c1 |  | 0.141 µM [rising, full curve, poor fit]
Oc1ccc(NCc2cccc(OCc3ccc(F)cc3)c2)cc1 | 12.6 µM [falling, partial curve] | 11.2 µM [falling, partial curve]
COc1cccc(-n2nnnc2SCC(=O)Nc2cccc(NC(C)=O)c2)c1 |  | 15.8 µM [rising, single point]
O=C(c1ccco1)N1CCN(c2nc3c(F)cc(F)cc3s2)CC1 |  | 35.5 µM [falling, partial curve]
CC1(C)CCCN(C(=O)c2ccc3c(c2NCCO)C(=O)c2ccccc2C3=O)C1 | 17.8 µM [rising, partial curve] | 25.1 µM [rising, single point]
CCN(CC)S(=O)(=O)c1ccc(NC2CCCc3ccccc32)nc1 (centres undefined) |  | 20 µM [rising, single point]
Nc1ccc(S(=O)(=O)NC(=O)c2ccccc2)cc1 | 1.41 µM [falling, partial curve, poor fit] | 
CCC(C)NC(=O)C1(C)CCC(=O)N1Cc1ccccc1OC (centres undefined) |  | 3.16 µM [falling, single point]
COCCOC(=O)C1=C(C)NC(=O)NC1c1ccc(-c2ccc(F)cc2)o1 (centres undefined) |  | 7.94 µM [falling, partial curve, poor fit]
Cc1ccc(C(C[N+](=O)[O-])c2c(C)[nH]n(-c3ccccc3)c2=O)cc1 (centres undefined) | 35.5 µM [rising, single point] | 
CN1CCNC(=O)C1CC(=O)NCC1(c2ccccc2)CCCCC1 (centres undefined) | 0.891 µM [rising, partial curve] | 
CC(C)(CNC(=O)/C=C/c1ccc(F)cc1)CNC(=O)/C=C/c1ccc(F)cc1 |  | 12.6 µM [rising, single point]
CCOc1ccc(NC(=S)N2CCC(C(O)(c3ccccc3)c3ccccc3)CC2)cc1 |  | 35.5 µM [rising, single point]
CCCC[C@@]1(C2CCCC2)Cc2cc(OCC(=O)O)c(Cl)c(Cl)c2C1=O | 17.8 µM [falling, partial curve] | 12.6 µM [falling, partial curve]
COC(=O)Nc1ccc(S(=O)(=O)N2CCC(Cc3ccccc3)CC2)cc1 | 1 µM [rising, partial curve, poor fit] | 25.1 µM [rising, single point]
CC1=C(C(=O)OCCc2ccccc2)C(c2ccsc2)NC(=O)N1C (centres undefined) | 5.62 µM [rising, partial curve] | 12.6 µM [rising, partial curve]
CCC1=NN(C(=O)Cc2ccc([N+](=O)[O-])cc2)C(O)(c2ccc(Br)cc2)C1 (centres undefined) | 28.2 µM [rising, single point] | 35.5 µM [rising, single point]
CCC(Sc1nncn1C)C(=O)Nc1nnc(-c2ccccc2Cl)s1 (centres undefined) |  | 35.5 µM [rising, single point]
O=C(Nc1ccc2c(c1)OCCO2)C1CCN(c2nnnn2-c2ccccc2)CC1 |  | 5.62 µM [rising, single point]

Two entries drawn at random from those above, as already listed:
SMILES | AC50 [1] | AC50 [2]
CN1CCNC(=O)C1CC(=O)NCC1(c2ccccc2)CCCCC1 (centres undefined) | 0.891 µM [rising, partial curve] | 
Cc1ccc(S(=O)(=O)Cn2nnnc2C(CC(C)C)N2CCN(C)CC2)cc1 (centres undefined) | 0.158 µM [rising, full curve, poor fit] | 
